No constants are given. Whether binding was seen depends on the method and setting. For some of these results: In cells and extracts the contact can be indirect. Some entries that bind do so weakly or less than the wild type. For some of these results: Sequences can lack the tags named with a protein.
T1: Flag-tagged Siah1 C75S (catalytically inactive mutant) (UniProt Q8IUQ4)
T1 sequence: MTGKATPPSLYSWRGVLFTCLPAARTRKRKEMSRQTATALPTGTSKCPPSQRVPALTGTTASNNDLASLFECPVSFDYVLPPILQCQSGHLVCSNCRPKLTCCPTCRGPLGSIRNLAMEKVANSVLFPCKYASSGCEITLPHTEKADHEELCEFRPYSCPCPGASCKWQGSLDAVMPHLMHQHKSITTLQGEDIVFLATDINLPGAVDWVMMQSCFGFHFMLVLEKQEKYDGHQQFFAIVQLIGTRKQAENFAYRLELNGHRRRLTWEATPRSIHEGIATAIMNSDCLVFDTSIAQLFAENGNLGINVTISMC

Amino acid sequences for entries named in this document (tags omitted).
UniProt P50750: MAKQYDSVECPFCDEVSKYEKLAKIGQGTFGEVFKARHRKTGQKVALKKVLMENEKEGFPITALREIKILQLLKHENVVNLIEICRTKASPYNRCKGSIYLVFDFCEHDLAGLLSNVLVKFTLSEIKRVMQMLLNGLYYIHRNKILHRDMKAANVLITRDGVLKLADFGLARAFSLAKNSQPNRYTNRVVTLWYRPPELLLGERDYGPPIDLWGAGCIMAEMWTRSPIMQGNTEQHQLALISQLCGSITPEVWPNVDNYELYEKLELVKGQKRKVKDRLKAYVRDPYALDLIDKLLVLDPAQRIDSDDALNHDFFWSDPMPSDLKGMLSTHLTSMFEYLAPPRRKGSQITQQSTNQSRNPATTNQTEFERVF
UniProt O00472: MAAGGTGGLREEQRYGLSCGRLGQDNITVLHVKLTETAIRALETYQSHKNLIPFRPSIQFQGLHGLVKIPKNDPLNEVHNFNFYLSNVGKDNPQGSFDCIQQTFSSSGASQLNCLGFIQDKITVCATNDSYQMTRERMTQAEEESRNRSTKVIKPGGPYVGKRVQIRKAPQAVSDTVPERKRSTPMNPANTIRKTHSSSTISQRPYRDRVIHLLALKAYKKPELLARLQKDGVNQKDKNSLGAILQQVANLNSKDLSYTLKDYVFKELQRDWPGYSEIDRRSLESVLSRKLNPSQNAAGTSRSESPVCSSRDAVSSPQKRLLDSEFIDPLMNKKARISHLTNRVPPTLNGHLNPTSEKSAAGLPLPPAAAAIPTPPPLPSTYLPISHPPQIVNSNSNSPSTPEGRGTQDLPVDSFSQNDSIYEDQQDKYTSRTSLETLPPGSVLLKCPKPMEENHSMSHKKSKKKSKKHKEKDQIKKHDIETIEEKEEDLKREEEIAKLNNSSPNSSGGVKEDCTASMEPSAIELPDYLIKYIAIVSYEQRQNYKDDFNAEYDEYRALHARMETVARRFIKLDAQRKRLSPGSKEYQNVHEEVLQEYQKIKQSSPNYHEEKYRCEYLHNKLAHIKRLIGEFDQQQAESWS
UniProt P42568: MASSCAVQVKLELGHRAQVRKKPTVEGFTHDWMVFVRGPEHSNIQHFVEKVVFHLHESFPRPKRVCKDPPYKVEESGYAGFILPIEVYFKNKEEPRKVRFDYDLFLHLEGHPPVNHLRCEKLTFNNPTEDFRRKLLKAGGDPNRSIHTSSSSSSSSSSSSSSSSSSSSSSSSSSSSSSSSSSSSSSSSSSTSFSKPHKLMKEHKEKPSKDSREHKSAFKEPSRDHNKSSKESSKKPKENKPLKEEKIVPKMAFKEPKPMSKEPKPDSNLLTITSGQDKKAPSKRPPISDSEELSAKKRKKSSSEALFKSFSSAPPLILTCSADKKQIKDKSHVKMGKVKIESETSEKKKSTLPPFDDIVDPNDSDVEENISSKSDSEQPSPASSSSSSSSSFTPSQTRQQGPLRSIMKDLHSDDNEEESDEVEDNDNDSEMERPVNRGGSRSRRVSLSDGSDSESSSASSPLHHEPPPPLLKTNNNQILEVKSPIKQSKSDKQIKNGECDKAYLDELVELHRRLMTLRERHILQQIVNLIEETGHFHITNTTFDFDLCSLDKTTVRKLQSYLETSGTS

T2: HA-HCF2 (host cell factor 2) (UniProt Q9Y5Z7)
T2 sequence: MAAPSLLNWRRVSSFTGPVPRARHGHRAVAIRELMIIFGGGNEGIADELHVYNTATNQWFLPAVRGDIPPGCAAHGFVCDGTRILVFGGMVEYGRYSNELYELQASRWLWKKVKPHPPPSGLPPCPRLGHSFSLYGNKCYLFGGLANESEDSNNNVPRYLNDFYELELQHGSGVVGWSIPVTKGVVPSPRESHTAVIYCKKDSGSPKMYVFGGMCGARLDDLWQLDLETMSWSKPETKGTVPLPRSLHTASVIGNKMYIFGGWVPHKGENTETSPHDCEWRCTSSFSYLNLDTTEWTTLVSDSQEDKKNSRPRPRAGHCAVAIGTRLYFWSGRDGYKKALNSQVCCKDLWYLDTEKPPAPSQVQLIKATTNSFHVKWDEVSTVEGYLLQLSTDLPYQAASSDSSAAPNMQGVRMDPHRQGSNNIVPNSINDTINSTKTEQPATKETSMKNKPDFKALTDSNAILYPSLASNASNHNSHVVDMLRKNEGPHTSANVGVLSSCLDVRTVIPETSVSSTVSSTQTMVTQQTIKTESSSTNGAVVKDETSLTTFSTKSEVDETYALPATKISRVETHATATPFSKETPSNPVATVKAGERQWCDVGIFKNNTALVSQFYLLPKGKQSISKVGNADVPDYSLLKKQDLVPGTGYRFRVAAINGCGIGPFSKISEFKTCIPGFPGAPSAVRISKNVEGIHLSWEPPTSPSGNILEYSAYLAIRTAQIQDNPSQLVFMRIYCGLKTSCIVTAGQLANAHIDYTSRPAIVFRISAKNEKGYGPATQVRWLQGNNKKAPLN

B1: HA-HCF2 (host cell factor 2) (protein, UniProt Q9Y5Z7 1-792)
chain: T2 sequence
B2: AFF4 (endogenous) (protein, UniProt Q9UHB7 1-1163)
chain: MNREDRNVLRMKERERRNQEIQQGEDAFPPSSPLFAEPYKVTSKEDKLSSRIQSMLGNYDEMKDFIGDRSIPKLVAIPKPTVPPSADEKSNPNFFEQRHGGSHQSSKWTPVGPAPSTSQSQKRSSGLQSGHSSQRTSAGSSSGTNSSGQRHDRESYNNSGSSSRKKGQHGSEHSKSRSSSPGKPQAVSSLNSSHSRSHGNDHHSKEHQRSKSPRDPDANWDSPSRVPFSSGQHSTQSFPPSLMSKSNSMLQKPTAYVRPMDGQESMEPKLSSEHYSSQSHGNSMTELKPSSKAHLTKLKIPSQPLDASASGDVSCVDEILKEMTHSWPPPLTAIHTPCKTEPSKFPFPTKESQQSNFGTGEQKRYNPSKTSNGHQSKSMLKDDLKLSSSEDSDGEQDCDKTMPRSTPGSNSEPSHHNSEGADNSRDDSSSHSGSESSSGSDSESESSSSDSEANEPSQSASPEPEPPPTNKWQLDNWLNKVNPHKVSPASSVDSNIPSSQGYKKEGREQGTGNSYTDTSGPKETSSATPGRDSKTIQKGSESGRGRQKSPAQSDSTTQRRTVGKKQPKKAEKAAAEEPRGGLKIESETPVDLASSMPSSRHKAATKGSRKPNIKKESKSSPRPTAEKKKYKSTSKSSQKSREIIETDTSSSDSDESESLPPSSQTPKYPESNRTPVKPSSVEEEDSFFRQRMFSPMEEKELLSPLSEPDDRYPLIVKIDLNLLTRIPGKPYKETEPPKGEKKNVPEKHTREAQKQASEKVSNKGKRKHKNEDDNRASESKKPKTEDKNSAGHKPSSNRESSKQSAAKEKDLLPSPAGPVPSKDPKTEHGSRKRTISQSSSLKSSSNSNKETSGSSKNSSSTSKQKKTEGKTSSSSKEVKEKAPSSSSNCPPSAPTLDSSKPRRTKLVFDDRNYSADHYLQEAKKLKHNADALSDRFEKAVYYLDAVVSFIECGNALEKNAQESKSPFPMYSETVDLIKYTMKLKNYLAPDATAADKRLTVLCLRCESLLYLRLFKLKKENALKYSKTLTEHLKNSYNNSQAPSPGLGSKAVGMPSPVSPKLSPGNSGNYSSGASSASASGSSVTIPQKIHQMAASYVQVTSNFLYATEIWDQAEQLSKEQKEFFAELDKVMGPLIFNASIMTDLVRYTRQGLHWLRQDAKLIS
B3: AFF1 (endogenous) (protein, UniProt P51825 1-1210)
chain: MAAQSSLYNDDRNLLRIREKERRNQEAHQEKEAFPEKIPLFGEPYKTAKGDELSSRIQNMLGNYEEVKEFLSTKSHTHRLDASENRLGKPKYPLIPDKGSSIPSSSFHTSVHHQSIHTPASGPLSVGNISHNPKMAQPRTEPMPSLHAKSCGPPDSQHLTQDRLGQEGFGSSHHKKGDRRADGDHCASVTDSAPERELSPLISLPSPVPPLSPIHSNQQTLPRTQGSSKVHGSSNNSKGYCPAKSPKDLAVKVHDKETPQDSLVAPAQPPSQTFPPPSLPSKSVAMQQKPTAYVRPMDGQDQAPSESPELKPLPEDYRQQTFEKTDLKVPAKAKLTKLKMPSQSVEQTYSNEVHCVEEILKEMTHSWPPPLTAIHTPSTAEPSKFPFPTKDSQHVSSVTQNQKQYDTSSKTHSNSQQGTSSMLEDDLQLSDSEDSDSEQTPEKPPSSSAPPSAPQSLPEPVASAHSSSAESESTSDSDSSSDSESESSSSDSEENEPLETPAPEPEPPTTNKWQLDNWLTKVSQPAAPPEGPRSTEPPRRHPESKGSSDSATSQEHSESKDPPPKSSSKAPRAPPEAPHPGKRSCQKSPAQQEPPQRQTVGTKQPKKPVKASARAGSRTSLQGEREPGLLPYGSRDQTSKDKPKVKTKGRPRAAASNEPKPAVPPSSEKKKHKSSLPAPSKALSGPEPAKDNVEDRTPEHFALVPLTESQGPPHSGSGSRTSGCRQAVVVQEDSRKDRLPLPLRDTKLLSPLRDTPPPQSLMVKITLDLLSRIPQPPGKGSRQRKAEDKQPPAGKKHSSEKRSSDSSSKLAKKRKGEAERDCDNKKIRLEKEIKSQSSSSSSSHKESSKTKPSRPSSQSSKKEMLPPPPVSSSSQKPAKPALKRSRREADTCGQDPPKSASSTKSNHKDSSIPKQRRVEGKGSRSSSEHKGSSGDTANPFPVPSLPNGNSKPGKPQVKFDKQQADLHMREAKKMKQKAELMTDRVGKAFKYLEAVLSFIECGIATESESQSSKSAYSVYSETVDLIKFIMSLKSFSDATAPTQEKIFAVLCMRCQSILNMAMFRCKKDIAIKYSRTLNKHFESSSKVAQAPSPCIASTGTPSPLSPMPSPASSVGSQSSAGSVGSSGVAATISTPVTIQNMTSSYVTITSHVLTAFDLWEQAEALTRKNKEFFARLSTNVCTLALNSSLVDLVHYTRQGFQQLQELTKTP
B4: Flag-tagged Siah1 C75S (catalytically inactive mutant) (enzyme, UniProt Q8IUQ4-2 1-313)
chain: T1 sequence

Assays:
[1] = molecular target: CDK9 (endogenous) (human (endogenous; cell line of Figure 2E not named)) (UniProt P50750); assay: co-IP; IP of nuclear extracts with anti-CDK9 polyclonal antibodies or rabbit total IgG; cells expressing a scrambled sequence, shHCF1 or shHCF2; Western blot
[2] = molecular target: T1, Flag-tagged Siah1 C75S (catalytically inactive mutant); assay: pull-down; in vitro competition: purified HA-HCF1/2 and GST-ELL2 on immobilized F-Siah1C75S (Supplemental Figure S2; methods not shown); both purified
[3] = molecular target: T1, Flag-tagged Siah1 C75S (catalytically inactive mutant); assay: co-IP; anti-Flag agarose IP of whole cell extracts of co-transfected 293T cells, 48 h after transfection; washes with buffer D with 0.3 M KCl, then 0.1 M KCl; Western blot; rising amounts of HA-HCF1 or HA-HCF2 in Figures 4A and 4B
[4] = molecular target: T2, HA-HCF2 (host cell factor 2); assay: co-IP; anti-HA agarose IP of whole cell extracts of 293T cells transfected with F-Siah1 proteins and HA-HCF1 or HA-HCF2; washes with buffer D with 0.3 M KCl, then 0.1 M KCl; Western blot

Molecule	binding [1]	binding [3]	also measured
ELL2 (endogenous) (from UniProt O00472 1-640)	binds		
GST-ELL2 (from UniProt O00472 1-640)			binding [2]: binds
ELL2 (co-expressed in 293T cells) (from UniProt O00472 1-640)		binds	
AF9 (endogenous) (from UniProt P42568 1-568)	binds		
B1		binds	binding [2]: binds
B2	binds		
B3	binds		
B4		binds	binding [4]: binds
